These are yes or no findings as the source states them, for the method shown. In cells and extracts the contact can be indirect. Some binding calls cover weakened binding; strength is not graded here.
Experiments:
[1] = biological target: c-Myc (human (endogenous in H1299)) (UniProt P01106); experiment: co-IP; endogenous proteins precipitated from H1299 cells with CPT1A or c-Myc antibody, western blot; also in H1299-shNC/shCPT1A cells (CPT1A knock-down; siFBXW7 or control siRNA)
[2] = biological target: T1, Carnitine palmitoyl transferase 1A (human (endogenous in H1299)) (UniProt P50416); experiment: as above
T1 sequence: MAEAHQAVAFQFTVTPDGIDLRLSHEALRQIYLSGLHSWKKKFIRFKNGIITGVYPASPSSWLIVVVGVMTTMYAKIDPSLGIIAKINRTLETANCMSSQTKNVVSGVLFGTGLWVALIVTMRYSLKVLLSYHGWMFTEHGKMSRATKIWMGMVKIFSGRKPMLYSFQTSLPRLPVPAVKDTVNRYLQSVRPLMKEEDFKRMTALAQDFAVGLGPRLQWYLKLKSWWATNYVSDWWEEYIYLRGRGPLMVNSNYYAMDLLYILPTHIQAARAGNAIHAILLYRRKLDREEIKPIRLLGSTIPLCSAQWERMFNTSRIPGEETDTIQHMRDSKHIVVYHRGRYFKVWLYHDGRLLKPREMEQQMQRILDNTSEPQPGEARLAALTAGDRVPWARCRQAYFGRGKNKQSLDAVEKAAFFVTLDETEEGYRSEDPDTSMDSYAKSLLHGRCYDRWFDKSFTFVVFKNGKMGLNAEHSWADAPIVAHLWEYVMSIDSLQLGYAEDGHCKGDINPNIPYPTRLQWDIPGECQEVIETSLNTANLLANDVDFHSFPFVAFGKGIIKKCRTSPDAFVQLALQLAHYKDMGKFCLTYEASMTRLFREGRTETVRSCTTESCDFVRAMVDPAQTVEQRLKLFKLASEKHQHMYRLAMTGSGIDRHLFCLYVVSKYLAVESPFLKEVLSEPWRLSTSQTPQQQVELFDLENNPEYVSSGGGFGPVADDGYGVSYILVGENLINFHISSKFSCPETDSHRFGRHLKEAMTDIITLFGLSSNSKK

By UniProt entry, the sequences of proteins in these tests, tags left out.
UniProt P01106: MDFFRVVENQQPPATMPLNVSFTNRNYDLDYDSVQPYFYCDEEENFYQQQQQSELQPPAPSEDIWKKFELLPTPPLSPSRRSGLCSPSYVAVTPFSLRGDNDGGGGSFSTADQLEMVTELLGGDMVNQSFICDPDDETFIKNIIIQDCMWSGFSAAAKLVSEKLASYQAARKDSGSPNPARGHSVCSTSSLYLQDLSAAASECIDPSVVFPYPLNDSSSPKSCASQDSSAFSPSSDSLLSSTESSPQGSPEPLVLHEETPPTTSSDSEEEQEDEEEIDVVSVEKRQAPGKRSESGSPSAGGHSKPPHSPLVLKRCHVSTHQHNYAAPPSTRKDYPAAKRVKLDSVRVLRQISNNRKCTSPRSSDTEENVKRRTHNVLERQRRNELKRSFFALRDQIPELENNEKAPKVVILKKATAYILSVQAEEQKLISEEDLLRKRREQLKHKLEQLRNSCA
UniProt Q969H0: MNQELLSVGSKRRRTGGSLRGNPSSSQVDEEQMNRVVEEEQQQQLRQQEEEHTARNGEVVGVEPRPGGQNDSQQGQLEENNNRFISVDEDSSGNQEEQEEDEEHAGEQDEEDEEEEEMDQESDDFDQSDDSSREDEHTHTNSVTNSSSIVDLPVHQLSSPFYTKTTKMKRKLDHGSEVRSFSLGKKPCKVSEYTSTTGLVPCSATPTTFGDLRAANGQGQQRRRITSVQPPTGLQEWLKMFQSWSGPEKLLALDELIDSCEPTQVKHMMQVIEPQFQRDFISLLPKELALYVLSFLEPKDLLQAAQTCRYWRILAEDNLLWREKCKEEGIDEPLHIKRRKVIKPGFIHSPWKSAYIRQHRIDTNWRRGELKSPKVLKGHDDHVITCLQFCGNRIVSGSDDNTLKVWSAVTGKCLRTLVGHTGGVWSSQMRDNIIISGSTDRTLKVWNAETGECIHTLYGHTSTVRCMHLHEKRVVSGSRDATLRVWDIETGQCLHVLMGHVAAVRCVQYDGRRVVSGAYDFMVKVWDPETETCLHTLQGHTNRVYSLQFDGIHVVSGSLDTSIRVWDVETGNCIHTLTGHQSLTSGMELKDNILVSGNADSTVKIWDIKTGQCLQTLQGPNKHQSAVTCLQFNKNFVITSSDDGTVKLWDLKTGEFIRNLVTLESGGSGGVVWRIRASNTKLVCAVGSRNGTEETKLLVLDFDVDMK

Row | binding [1] | binding [2] | Substance
1 | binds | – | FBXW7 (from UniProt Q969H0 1-707)
2 | – | binds | c-Myc (from UniProt P01106 1-454)

Source: paper PMC10920667
